Data published in doi:10.1101/2025.02.04.636234.
No constants are given. Whether binding was seen depends on the method and setting. Binding can be weak; no strength is given. Sequences can lack the tags named with a protein.

Biological target: T1, … TESTA GLABRA 1 (GAL4-BD fusion) (Arabidopsis thaliana (Col-0 cDNA)) (UniProt Q9XGN1)
T1 sequence: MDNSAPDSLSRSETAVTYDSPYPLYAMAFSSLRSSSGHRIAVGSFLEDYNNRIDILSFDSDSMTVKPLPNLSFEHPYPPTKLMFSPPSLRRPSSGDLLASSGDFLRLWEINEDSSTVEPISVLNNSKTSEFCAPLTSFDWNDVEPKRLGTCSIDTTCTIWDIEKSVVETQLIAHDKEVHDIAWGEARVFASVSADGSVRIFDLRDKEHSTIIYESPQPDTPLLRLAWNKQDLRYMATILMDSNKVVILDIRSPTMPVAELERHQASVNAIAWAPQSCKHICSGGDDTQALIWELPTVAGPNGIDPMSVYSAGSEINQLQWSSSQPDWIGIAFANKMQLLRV
Test: two-hybrid

binding: binds
Substance: PRR3 (two-hybrid fusion) (Arabidopsis thaliana)
